Reference: PubChem BioAssay AID463205 (Broad Institute, 2010)
About 20 (0.8%) of roughly 2,400 compounds were called active.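 How the source made its calls: active means AC50 no more than ten times the highest tested concentration, or full inhibition at every dose giving a flat fit (cut at about 30 µM in these data); inconclusive means flat fit with activity between 30% and 70%, or poor-quality invalid fit; inactive means AC50 more than ten times the top tested dose.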 This is one part of the list.

assay: inhibitors of ADP-Glo detection reagents, dose response, artefact control for GSK-3a inhibitor project, biochemical, luminescence, cell-free, homogeneous (AID 463205); settings: 5 uM ADP;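 further: kinase-free counter-screen against the ADP-Glo detection reagents only; potency is for inhibitors that reduce the luminescence signal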

AC50, inactive:
O=c1[nH]ncc(N/N=C\c2cccs2)c1Cl > 30 µM
CC(OC(=O)Cc1c[nH]c2ccccc12)C(=O)c1ccccc1 (stereo unspecified) > 30 µM
CC(=O)Nc1ccc2nsnc2c1 > 30 µM
CC(/C=N/NC(=O)CSc1nc2ccccc2n1C)=C\c1ccco1 > 30 µM
CCOC(=O)c1nnn(-c2nonc2N)c1-c1ccc(Cl)cc1 > 30 µM
O=C(Nc1cccc(Cl)c1N1CCOCC1)c1ccc(Br)o1 > 30 µM
COc1ccccc1C(=O)Nc1nc(C)cc(C)n1 > 30 µM
COc1ccc(OC)c(/C=C2\S/C(=N/NC(=O)c3ccc4ccccc4c3)NC2=O)c1 > 30 µM
COC(=O)c1oc2ccc(Br)cc2c1NC(=O)c1ccccc1 > 30 µM
Cc1cccc(C)c1OCC(=O)N=Nc1c(O)[nH]c2ccc(Br)cc12 > 30 µM
CC(C)c1onc(C(=O)N(C)C2CCCCC2)c1[N+](=O)[O-] > 30 µM
COc1ccc(/C=N/NC(=O)CSCc2ccc([N+](=O)[O-])cc2)cc1OC > 30 µM
COc1ccc(CC(=O)Nc2ccc(-c3cn4ccccc4n3)cc2)cc1OC > 30 µM
C=CCNc1cc(N2CCCC2)ccc1[N+](=O)[O-] > 30 µM
Cc1cc(=O)[nH]c2c(C)c(Cl)ccc12 > 30 µM
Fc1ccc(Nc2ncnc3ccccc23)cc1 > 30 µM
COc1ccc(C(=O)NCC(=O)N/N=C(C)\C=C\c2ccccc2)cc1OC > 30 µM
c1ccc2[nH]c(C3CC3)nc2c1 > 30 µM
O=[N+]([O-])c1cccnc1NCCc1ccccc1 > 30 µM
COCCNc1nnc(SCC(=O)NC2CCCCC2)s1 > 30 µM
N#Cc1c(N2CCOCC2)nc(N2CCCCC2)c2c1CCN(C1CCCCC1)C2 > 30 µM
COc1ccccc1CC(=O)N1CCOCC1 > 30 µM
CC(=O)c1cc(-c2ccc(F)cc2)n(CCC(=O)Nc2cccnc2)c1C > 30 µM
CCn1c(SCc2nc3sc(C(=O)O)c(C)c3c(=O)[nH]2)nc2ccccc21 > 30 µM
Cn1c(=O)c2c(nc(NCC3CCCO3)n2Cc2ccccc2)n(C)c1=O (stereo unspecified) > 30 µM
O=[N+]([O-])c1ccc(-c2nnc(CNC3CCCC3)o2)cc1 > 30 µM
Cc1c(O)ccc2c3c(c(=O)oc12)CCC(C)C3 (stereo unspecified) > 30 µM
O=C(Nc1cccc(-c2cnc3ccccc3n2)c1)c1cccc(NC(=O)c2ccco2)c1 > 30 µM
COC(=O)C1=C(C)N(CC(C)C)C(=O)/C1=C\c1cccs1 > 30 µM
Cc1ccnc(NC(=O)CN2C(=O)c3ccccc3S2(=O)=O)c1 > 30 µM
NNc1nc2sc3c(c2c(=O)[nH]1)CCc1ccccc1-3 > 30 µM
Nc1c(C(=O)O)cnc2c(-c3ccc(Cl)cc3)cnn12 > 30 µM
O=C(COc1ccc(-n2cnnn2)cc1)Nc1ccc(F)c(F)c1F > 30 µM
CC(C)Nc1nc(NC(C)C)nc(C(=O)OCCO)n1 > 30 µM
COc1ccc(NC(=O)c2nnn(Cc3ccc(SC)cc3)c2N)c(OC)c1 > 30 µM
COc1ccc(-c2ncncc2-c2ccc(Cl)cc2)c(O)c1 > 30 µM
COc1ccc([N+](=O)[O-])cc1NC(=O)CCN1CCN(C)CC1 > 30 µM
Fc1ccccc1-c1n[nH]c(=S)n1/N=C/c1c[nH]c2ccccc12 > 30 µM
CCC(Sc1ccc2nnc(-c3ccc(OC)c(OC)c3)n2n1)C(=O)O (stereo unspecified) > 30 µM
O=c1[nH]nnc2c1sc1nc(N3CCOCC3)c3c(c12)CCCC3 > 30 µM
Cc1ccc2c(c1)COc1c3ccc(C(=O)N4CCCCC4)cc3nn1-2 > 30 µM
COc1cc(NC(=O)c2cc([N+](=O)[O-])ccc2NC(=O)CNC2CCCCC2)cc(OC)c1 > 30 µM
COc1ccccc1/C=N/NC(=O)c1nnn(-c2nonc2N)c1-c1cccs1 > 30 µM
CC(=O)Nc1cccc(-c2csc(Nc3ccc(C)cn3)n2)c1 > 30 µM
COCCOC(=O)c1[nH]c2c(c1C)C(=O)CC(c1cc(OC)c(OC)c(OC)c1)C2 (stereo unspecified) > 30 µM
CCN1CCN(c2c(Cl)cccc2NC(=O)c2cc3ccccc3o2)CC1 > 30 µM
Cc1cn(C2OC(CC(=O)Oc3ccccc3)C(O)C2O)c(=O)[nH]c1=O (stereo unspecified) > 30 µM
O=C(O)COc1ccccc1/C=N/NC(=O)CSc1nnc(SCc2ccccc2)s1 > 30 µM
O=C(CSc1nnc(SCC(=O)c2ccco2)s1)c1ccco1 > 30 µM
Cn1cnnc1SCC(=O)Nc1ccc(Cl)cn1 > 30 µM
CCOc1ccccc1C1N(c2ccc(OC)cc2)C(=O)C2CCCN21 (stereo unspecified) > 30 µM
Cc1nc2ccc(-c3ccccc3)cc2o1 > 30 µM
Cc1ccc(-c2noc(CSc3nnnn3-c3ccccc3)n2)cc1 > 30 µM
CCOc1ccc(-c2nnc(N)s2)cc1 > 30 µM
O=C(Nc1cccc(-c2nc3cccnc3s2)c1)c1cccnc1Cl > 30 µM
CS(=O)(=O)N1CCN(c2ccccc2NC(=O)c2ccc(Br)o2)CC1 > 30 µM
COC(=O)c1cn(C(=O)c2ccc(Cl)cc2)c2ccccc12 > 30 µM
N#Cc1c(-c2ccncc2)c2c([nH]c1=O)-c1ccccc1OC2 > 30 µM
CCc1ccc(C2CC(c3ccc(F)cc3)Nc3nc(N)nn32)cc1 (stereo unspecified) > 30 µM
CCOC(=O)c1nn(-c2ccc(Cl)cc2)c2nc(Nc3ccccc3)cc(=O)n12 > 30 µM
Nc1cccc(C(=O)O)c1 > 30 µM
Cc1cccc(N=Nc2c(O)[nH]c3ccc(F)cc23)c1 > 30 µM
Cc1ccc(N=CC2=C(O)CC(C)(C)CC2=O)nc1 > 30 µM
Cc1nc(N)nc(-c2ccccc2O)n1 > 30 µM
O=Cc1cn(-c2ccccc2)nc1-c1cccnc1 > 30 µM
C=CCOc1ccc(/C=N/n2cncn2)cc1OC > 30 µM
CC(C)(C)OC(=O)N1CCN(C(=O)c2[nH]cnc2C(=O)Nc2ccon2)CC1 > 30 µM
CCn1ccc(C(=O)Nc2ccsc2C(=O)OC)n1 > 30 µM
Cc1c(C(=O)OCCOC(C)C)[nH]c2c1C(=O)CC(C)(C)C2 > 30 µM
COc1ccc(-c2ncncc2-c2ccccc2)c(O)c1 > 30 µM
O=c1[nH]cccc1-c1nc2ccccc2[nH]1 > 30 µM
Cc1ccc(C2C(C#N)=C(N)Oc3nc(-c4ccccc4)[nH]c32)o1 (stereo unspecified) > 30 µM
Brc1ccccc1C1=Nn2c(nnc2-c2ccccc2)SC1 > 30 µM
C=CCNc1nc(N)c([N+](=O)[O-])c(N2CCCCCC2)n1 > 30 µM
O=S(=O)(Nc1ccc(-c2nnc(SCc3ccc(Cl)cc3)o2)cc1)c1ccccc1 > 30 µM
CCNc1nc(NCC)nc(C(=O)OCCO)n1 > 30 µM
CCCOc1ccccc1NC(=O)Nc1ccccc1Cl > 30 µM
CCN1CCN(c2nc(Nc3ccc(OC)cc3)nc(N)c2[N+](=O)[O-])CC1 > 30 µM
COc1cccc(Nc2ncnc3nc[nH]c23)c1 > 30 µM
CCN1/C(=C/c2ccc3cc(C)ccc3[n+]2CC)Sc2ccccc21 > 30 µM
Cc1cc(C)c[n+](C2=C([O-])c3ccccc3C(=O)/C2=N\S(=O)(=O)c2cccs2)c1 > 30 µM
CCCOc1ccc(-c2c(C(=O)N/N=C(\C)c3cccnc3)nnn2-c2nonc2N)cc1 > 30 µM
Cc1ccnc(NC(=O)CCC(=O)N(CC(=O)NCc2ccccc2)Cc2ccc(F)cc2)c1 > 30 µM
CCOc1ccc(S(=O)(=O)c2c(C(=O)c3ccc(C)cc3)cnc3cc4c(cc23)OCCO4)cc1 > 30 µM
CCCc1nc2oc3cc(OC)ccc3c(=O)c2c(=O)n1Cc1ccco1 > 30 µM
CCNC(=S)NNC(=O)c1cccs1 > 30 µM
CCn1c(SCC(=O)N/N=C/c2cccs2)nc2ccccc21 > 30 µM
Brc1cccc(CSc2nnc(-c3ccncc3)o2)c1 > 30 µM
COc1ccccc1C(CNc1ccc(S(=O)(=O)N2CCCC2)cc1[N+](=O)[O-])N(C)C (stereo unspecified) > 30 µM
CCOC(=O)c1c2c(n(C)c1C)C(=O)C(=O)c1ccc(Br)cc1-2 > 30 µM
COc1ccc(NC(=O)CN(C)C2CCCCC2)c([N+](=O)[O-])c1 > 30 µM
Fc1ccc(C2=Nn3c(nnc3-c3ccco3)SC2)cc1 > 30 µM
CC(C)(C)c1cc(-c2nc(N)nc(N)n2)c(O)c(C(C)(C)C)c1 > 30 µM
O=C(CSc1ccc(F)cc1)Nc1ccc2c(c1)C(=O)NC2=O > 30 µM
O=C(O)c1cc(NC(=O)c2ccccc2[N+](=O)[O-])ccc1O > 30 µM
CC(C)=CCc1c(O)cc(O)c2c(=O)c(O[C@@H]3O[C@@H](C)[C@H](O)[C@@H](O)[C@H]3O)c(-c3ccc(O)cc3)oc12 > 30 µM

4 successive compounds already listed, quoted:
AC50, inactive:
COc1ccc(-c2ncncc2-c2ccc(Cl)cc2)c(O)c1 > 30 µM
COc1ccc([N+](=O)[O-])cc1NC(=O)CCN1CCN(C)CC1 > 30 µM
Fc1ccccc1-c1n[nH]c(=S)n1/N=C/c1c[nH]c2ccccc12 > 30 µM
CCC(Sc1ccc2nnc(-c3ccc(OC)c(OC)c3)n2n1)C(=O)O (stereo unspecified) > 30 µM
